Assay results published in patent US9340768B2, “Transformation of glycerol and cellulosic materials into high energy fuels” (THE TEXAS A&M UNIVERSITY SYSTEM, priority 2008, dated 2016).
At least one structure is not confirmed: it was looked up by name or label, or the drawing left a doubt.

Assays:
D. hansenii [1] = assay: Microscopic quantification of secreted (extracellular) lipid bodies, Nile red; format: cell-based, Debaryomyces hansenii; conditions: 100 nM wortmannin
Procedure: Fluorescent microscopy. For Nile red stained cells or cultures, microscopic photographs were taken with an Olympus BX51 microscope (Olympus America, New York, USA) equipped with an Olympus DP70 camera using a 530-550 nm excitation filter, a 570 nm diachronic mirror and a 590 nm emission filter with a 60× objective lens. For microscopic quantification of secreted lipid bodies, 50 μL of the cell suspension in media A containing 0.2% agarose and Nile red, with or without the addition of 100 nM wortmannin, were inoculated in triplicate in microscopic frames that allow the agarose-based matrix to be sealed between two pieces of cover glasses. Slides were incubated in 90% moisture at 30° C. At 0, 48, 72, 96, 120, 144 hr post inoculation, the number of the cells and extracellular lipid bodies (stained with Nile red) were quantified. In parallel, the cells were stained with FUN1 (Invitrogen) for viability determination.

D. hansenii [2] = assay: Electron microscopy of D. hansenii cells; format: cell-based, Debaryomyces hansenii; conditions: 100 nM wortmannin, 48, 120 and 192 hr, compared with untreated cells

For `COC[C@H]1OC(=O)c2coc3c2[C@@]1(C)C1=C(C3=O)[C@@H]2CCC(=O)[C@@]2(C)C[C@H]1OC(C)=O` [wortmannin], the “number of extracellular lipid bodies” value (D. hansenii [1]) was “reduced the number of extracellular lipid bodies” and the intracellular membrane morphology (D. hansenii [2]) was “alterations in the intracellular membrane morphology”.
